Source: patent US20160281093

Protein sequences, listed by entry. Tags and fused reporters are not part of them. Residues count along the entry.
UniProt P00582, 324-928: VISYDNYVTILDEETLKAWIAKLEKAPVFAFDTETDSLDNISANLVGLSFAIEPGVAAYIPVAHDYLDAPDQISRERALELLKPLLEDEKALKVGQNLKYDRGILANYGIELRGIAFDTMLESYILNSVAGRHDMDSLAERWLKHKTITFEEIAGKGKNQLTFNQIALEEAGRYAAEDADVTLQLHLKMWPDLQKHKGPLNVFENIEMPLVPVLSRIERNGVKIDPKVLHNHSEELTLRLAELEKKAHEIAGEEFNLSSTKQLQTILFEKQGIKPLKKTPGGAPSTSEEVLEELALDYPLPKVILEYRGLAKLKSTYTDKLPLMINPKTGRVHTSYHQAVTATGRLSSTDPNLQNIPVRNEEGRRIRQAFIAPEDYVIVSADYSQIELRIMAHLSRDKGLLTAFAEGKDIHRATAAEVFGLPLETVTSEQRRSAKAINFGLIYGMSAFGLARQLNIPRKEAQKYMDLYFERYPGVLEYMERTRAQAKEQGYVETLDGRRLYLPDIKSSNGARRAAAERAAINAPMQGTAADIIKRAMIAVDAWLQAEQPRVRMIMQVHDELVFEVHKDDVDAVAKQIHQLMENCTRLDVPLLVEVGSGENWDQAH

How the values were obtained:
[1] = molecular target: E. coli DNA polymerase I (Escherichia coli) (UniProt P00582); assay: activity assay; conditions: primer extension in absence of RNA, 50% synthesis at 1.8 uM dNTPs; 10 mM MgCl2, 37 C; purified recombinant protein; protein details: New England Biolabs; label: 5'-32P primer
[2] = molecular target: Klenow DNA polymerase (large fragment of DNA pol I) (Escherichia coli) (UniProt P00582); assay: activity assay; conditions: RNA-dependent dATP hydrolysis by TLC; 10 mM MgCl2, 50 mM NaCl, pH 7.9, 37 C; purified recombinant protein; protein details: New England Biolabs

| Sequence | activity on this sequence [1] | activity on this sequence [2] |
| --- | --- | --- |
| GCGTAATACGACTCACTATAG / TGTACGTTTCGGCCTTTCGGCCTCATCAGGTTGCCTATAGTGAGTCGTATTACGC [primer 21.1/template 55.1] | active | – |
| UCGACA [6-mer RNA] | – | active |
